Test results published in PubChem BioAssay AID1259415 (National Center for Advancing Translational Sciences (NCATS), 2018).
About 18,000 (4.4%) of roughly 410,000 compounds were called active. The shares of active, inactive and inconclusive entries below differ from those in the screen. Rule as the data show it: active = activity change below about -60%; inconclusive = no clear call, values can overlap the other calls; inactive = above about -39%.

experiment: qHTS Assay for inhibitors of the human cytomegalovirus (HCMV); details: HFF cells, HCMV-luciferase reporter, 72 h; at 57.5 µM; active compounds read low
How it was run: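 Cell-based, HFFs, 1000 cells/well, 16 h 37C; cpds in DMSO + HCMV-luc, MOI 1 PFU/cell; 72 h 37C; OneGlo luminescence after 5 min RT; norm. to buffer vs Salinomycin 10uM.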
% is scaled to controls: 0 for no effect and ±100 for the full control effect.

| Structure (SMILES) | activity change, negative = inhibition |
| --- | --- |
| CCN(CC)CCNC(=O)c1ccc2c(=O)n(CCc3ccccc3)c(=O)[nH]c2c1 | inconclusive: -53.6% |
| O=C1CCCC(O)=C1C1C2=C(CCCC2=O)OC2=C1C(=O)CCC2 | inactive: -33.2% |
| C=CCN1C(=O)c2ccccc2NC1c1cc(Br)cs1 (stereo unspecified) | inconclusive: -43% |
| O=[N+]([O-])c1ccc(N=Nc2ccc(O)cc2O)cc1 | active: -99.4% |
| Cc1cccc(C(=O)Nc2cccc(S(=O)(=O)NCc3ccco3)c2)c1 | inconclusive: -41.8% |
| NC(=O)CC[C@@H]1NC(=O)[C@H](CO)NC(=O)c2cc([N+](=O)[O-])cc(I)c2NCC[C@@H](C(N)=O)NC1=O | inconclusive: -44.2% |
| Cn1ccc(=NC=C(C#N)C#N)c2ccccc21 | inconclusive: -44.3% |
| CCOc1ccc(NC(=O)CSc2nnc(-c3ccc(OCC)cc3)o2)cc1 | inactive: -15.1% |
| Cc1cc2cc(C)c3nnc(SCC(=O)NCc4ccco4)n3c2cc1C | active: -79.2% |
| COc1ccccc1N/C(N)=N/c1nc(CSc2ccc(C)cc2)cc(=O)[nH]1 | inconclusive: -59% |
| COc1c(Br)cc([N+](=O)[O-])c(OC)c1C(=O)NC(=O)Nc1cc(Cl)cc(Cl)c1 | inconclusive: -56.3% |
| CC(=O)N1CCN(c2nc(C)nc3sc4c(c23)CCC(C)C4)CC1 (stereo unspecified) | inconclusive: -45.5% |
| CN(c1ccc(OC(=O)CN2C(=O)NC3(CCCC3)C2=O)cc1)S(=O)(=O)c1ccccc1 | inactive: 3.85% |
| CCc1ccc(-n2c(=S)sc3c(=O)n(-c4ccccc4C)c(SCC(=O)O)nc32)cc1 | inconclusive: -42.3% |
| CN(C)S(=O)(=O)c1ccc(N/C=C(\[N+](=O)[O-])S(=O)(=O)c2ccccc2)cc1 | inconclusive: -40.6% |
| COc1ccc(NC(=O)CSc2nnc(NC(=O)NC3CCCCC3)s2)cc1OC | inconclusive: -47.8% |
| CC(=O)c1ccc(OCC(=O)OCC(=O)Nc2sccc2C(N)=O)cc1 | inconclusive: -43.7% |
| Cc1ccc(S(=O)(=O)N(Cc2ccccc2)C(C)C)cc1 | inconclusive: -45.5% |
| Cc1nc(SC(C)C(=O)NCc2ccc3c(c2)OCO3)nc(C)c1C (stereo unspecified) | inactive: 20.9% |
| O=C1Nc2ccc(Br)cc2C1(O)Cc1ccccn1 (stereo unspecified) | inconclusive: -43.1% |
| CCC(C)(C)NC(=O)c1cccc(NC(=O)C(C)C)c1 | inconclusive: -40.6% |
| CCn1c2ccccc2c2cc(NC(=O)CSc3nnc(-c4ccc(OC)cc4)n3N)ccc21 | inconclusive: -43.6% |

| Structure (SMILES) | activity change, negative = inhibition |
| --- | --- |
| CN(C)C(C)(C)C#CCC(c1ccccc1)c1ccccc1 | inconclusive: -43.2% |
| COC(=O)C1CCCCN1C(=O)c1cc(COc2cccc3cnccc23)on1 (stereo unspecified) | active: -92% |
| CCCn1cc(CN2CCCC(CNC(=O)c3ccc(F)cc3)C2)c(C)n1 (stereo unspecified) | inconclusive: -45.2% |
| COc1cccc(-c2nc(CS(=O)CC(=O)O)c(C)o2)c1 (stereo unspecified) | inconclusive: -48% |
| COC(=O)c1ccc(SC)cn1 | inconclusive: -52.3% |
| COc1ccccc1Nc1nc(NCCCN(C)C)nc(N)c1[N+](=O)[O-] | inactive: -28.1% |
| Cn1c(SCC(=O)Nc2sccc2C#N)nnc1C1CC1 | inconclusive: -46% |
| Cc1ccc(C)c(OCC(=O)N/N=C/c2c(C)nn(-c3ccccc3)c2Cl)c1C | active: -67.8% |
| O=c1cc(-c2ccc(O)c(O)c2)oc2cc(O)cc(O)c12 | inconclusive: -41.9% |
| Oc1ccccc1CNc1cccc2cccnc12 | inactive: -4.95% |
| COc1ccc(C(=O)NC(=S)Nc2ccc(CN3CCOCC3)cc2)cc1Cl | inconclusive: -48.5% |
| Cc1nc2ccc(C(=O)N3c4ccccc4N=C(c4ccc5c(c4)OCO5)C3C(=O)NCc3ccccc3)cc2[nH]1 (stereo unspecified) | inconclusive: -54% |
| CCCCCC(=O)NC(=S)Nc1ccc(NC(=O)c2ccco2)cc1 | inconclusive: -49.4% |
| CCOc1ccc2nc(SCC(=O)Nc3nonc3C)[nH]c2c1 | inactive: 8.8% |
| Cc1oc(-c2ccc(Cl)cc2)nc1CSc1nc2ncccc2[nH]1 | inconclusive: -43.8% |
| Cc1cccc(Cn2nc(-n3cccc3)c3c(C)cc(C)nc32)c1 | inconclusive: -55.1% |
| Cc1nc2ccccn2c1C(=O)CSc1ccccc1Cl | active: -65.7% |
| Cc1nc2cc(NC(=O)c3ccc([N+](=O)[O-])s3)ccc2s1 | active: -93.8% |
| CC(=O)c1cccc(NC(=O)COc2cc3oc(=O)c(CC(C)O)c(C)c3cc2Cl)c1 (stereo unspecified) | inconclusive: -49.1% |
| C=CCn1c(=O)[nH]c2nc3cc(N=CN(C)C)c(C)cc3nc2c1=O | inconclusive: -48% |
| CC(C)c1ccc(NC(=O)C2(C)Cc3c(-c4cccc(C(N)=O)c4)ccnc3O2)cc1 (stereo unspecified) | inactive: 17.6% |
| Cn1c(SCc2ccccc2C#N)nc2ccccc2c1=O | inactive: -9.3% |

Exported bar-delimited: part of the list above.
Structure (SMILES) | activity change, negative = inhibition
Cc1nc2cc(NC(=O)c3ccc([N+](=O)[O-])s3)ccc2s1 | active: -93.8%
CC(=O)c1cccc(NC(=O)COc2cc3oc(=O)c(CC(C)O)c(C)c3cc2Cl)c1 (stereo unspecified) | inconclusive: -49.1%

3 compounds out of the list, sorted by SMILES length, smallest number first:

| Structure (SMILES) | activity change, negative = inhibition |
| --- | --- |
| Cn1c(SCC(=O)Nc2sccc2C#N)nnc1C1CC1 | inconclusive: -46% |
| COc1cccc(-c2nc(CS(=O)CC(=O)O)c(C)o2)c1 (stereo unspecified) | inconclusive: -48% |
| CC(=O)c1cccc(NC(=O)COc2cc3oc(=O)c(CC(C)O)c(C)c3cc2Cl)c1 (stereo unspecified) | inconclusive: -49.1% |

(listing goes on)

| Structure (SMILES) | activity change, negative = inhibition |
| --- | --- |
| COc1cc(OC)cc(C(=O)NC2=NCCS2)c1 | inactive: 2.25% |
| COc1ccc(-c2oc3ncn(CCN4CCOCC4)c(=N)c3c2-c2ccc(OC)cc2)cc1 | inconclusive: -51% |
| CCOc1[nH]n(-c2ccccc2)c(=O)c1C=Nc1ccccc1 | inconclusive: -54.1% |
| CCn1c(CN2CCC(C)CC2)nc2cc(NC(=O)COc3ccc(Cl)c(C)c3)ccc21 | inconclusive: -45.3% |
| CC1(C(=O)NS(=O)(=O)c2cccc(Cl)c2)CCN1C(=O)c1cccc2ccccc12 (stereo unspecified) | inactive: -0.63% |
| CCN(CC)c1ccc(CNc2ccc3c(c2)ncn3C(C)(C)C)cc1 | active: -67.7% |
| COc1cccc(N2CCN(C(=O)c3cc4cc5cc(C)ccc5nc4s3)CC2)c1 | inactive: 9.05% |
| CCc1ccc(-n2c(SCc3ccccc3Cl)nc3[nH]ncc3c2=O)cc1 | active: -105% |
| CN(C)c1ccc(CNc2nc3cc(-c4ccc(F)cc4)sc3c(=O)n2C)cc1 | active: -85.7% |
| COc1ccc(S(=O)(=O)N2CCN(C(=O)c3sccc3-c3ccccc3)CC2)cc1 | inconclusive: -43.1% |
| CCn1c(/C=C/c2cc[n+](C)cc2)nc2ccccc21 | inconclusive: -43.4% |
| C#CCOCCOCCOCCNc1nc(N2CCOCC2)nc(N2CCN(C(=O)Cn3cc(CCCCN)nn3)CC2)n1 | inactive: -5.38% |
| O=C1[C@@H]2Cc3c([nH]c4ccccc34)C(c3ccccc3)N2C(=O)CN1C1CCN(Cc2ccccc2)CC1 (stereo partly specified) | active: -76% |
| Cc1cccc2cc(C#N)c(NCCCn3ccnc3)nc12 | inconclusive: -45.7% |
| COc1ccc(S(=O)(=O)Cc2ccc(C(=O)N3CCN(Cc4ccccc4)CC3)o2)cc1 | inconclusive: -41.1% |
| COc1ccccc1N(CC1CO1)S(=O)(=O)c1ccccc1 (stereo unspecified) | inactive: 20.1% |
| COc1cc(C(=O)N/N=C/c2ccsc2C)cc(OC)c1OC | active: -78.6% |
| CCCCCc1c(CC)ncn1CCc1ccccc1OC | active: -110% |
| Cc1ccc(S(=O)(=O)N2CCN(C(=O)CN3CCN(c4ccc(O)cc4)CC3)CC2)cc1 | inconclusive: -45.1% |
| OC(Cc1cccc(Br)c1)c1ncc(-c2cccc(C(F)(F)F)c2)[nH]1 (stereo unspecified) | inactive: -23.4% |
| Cc1ccc(OCCOCCNC(C)C)c(Br)c1 | inactive: 5.94% |
| CCC(C)NC(=O)CCc1nc2ccccc2n1-c1ccccc1 (stereo unspecified) | inconclusive: -58% |

| Structure (SMILES) | activity change, negative = inhibition |
| --- | --- |
| COc1ccc(C(=O)Nc2ccccc2C(=O)Nc2ccc(C(=O)O)cc2)cc1 | inactive: 36.3% |
| O=C(CCCSc1nnnn1-c1cccc2ccccc12)c1ccc(F)cc1 | inconclusive: -49.9% |
| COc1ccc(NS(=O)(=O)c2cc(N=Nc3c(O)[nH]c(=O)[nH]c3=O)ccc2Cl)cc1 | inconclusive: -41.7% |
| O=C(CSc1ccc(-c2ccc(F)cc2)nn1)NC1CCCCC1 | inconclusive: -51% |
| Nc1ncnc2c1ccn2[C@H]1CN(Cc2ccc3c(c2)OCO3)C[C@@H](CO)O1 | inactive: -29.6% |
| Cc1ccc(-c2nc(CSCC(=O)N3CCOCC3)c(C)o2)cc1 | inactive: -22.4% |
| CCOc1ccc(NC(=O)c2nc(SCC)ncc2Cl)cc1 | inconclusive: -51.2% |
| COCCNC(=O)c1ccc(N2CC3CC(C2)c2cccc(=O)n2C3)c(NC(=O)c2ccccc2Cl)c1 (stereo unspecified) | inactive: -22.1% |
| O=C(Nc1ccc(Oc2ccccc2)cc1)c1ccc(F)c(S(=O)(=O)N2CCN(c3ccccc3F)CC2)c1 | active: -78.7% |
| COc1ccc(C/C(N)=N/OC(=O)c2cccc([N+](=O)[O-])c2)cc1 | inconclusive: -48.8% |
| NC1=NC[C@H](Cc2ccc(O)cc2)N1CCC12CC3CC(CC(C3)C1)C2 | active: -72.5% |
| Cc1c(C(=O)C(=O)NCC2CCCO2)c2ccccc2n1C (stereo unspecified) | inconclusive: -54.6% |
| Cc1cccc(N2CCN(C(=O)C(NS(=O)(=O)c3cccs3)c3ccccc3)CC2)c1C (stereo unspecified) | inactive: 8.62% |
| CC(C)CN(C(=O)COC(=O)c1cccc2ccccc12)c1c(N)n(Cc2ccccc2)c(=O)[nH]c1=O | inconclusive: -51.6% |
| O=C(NC(=S)Nc1cccc(C(F)(F)F)c1)c1csnn1 | inconclusive: -48.8% |
| COc1ccc(N(C(=O)c2snc(C(N)=O)c2N)C(C(=O)NC2CCCC2)c2ccco2)c(OC)c1 (stereo unspecified) | inconclusive: -58.3% |
| O=C1CSC(=S)N1c1ccc(F)c(Cl)c1 | inconclusive: -45.3% |
| NC(=O)c1ccc(N2CCN(S(=O)(=O)c3cccs3)CC2)c([N+](=O)[O-])c1 | active: -83.9% |
| Cc1ccc(-n2nc(C)c(C(=O)NCCCN3CCN(c4cccc(Cl)c4)CC3)c2-n2cccc2)cc1 | inactive: 8.91% |
| CCc1ccccc1NC(=O)C1CCN(c2nc3ccccc3[nH]2)CC1 | inconclusive: 0% |
